Results deposited as PubChem BioAssay AID1259405 (NCATS, 2018).

Purpose: 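Mouse-designed siRNAs used to find CHO productivity engineering targets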 (primary screen)
Cells: Chinese hamster CHO-K1 ovary cells with stable secreted eGFP expression
Knock-down reagent: single siRNA against mouse genes, 0.8 pmol siRNA per well (2 µl of 400 nM stock)
Time to read-out: 3 days
Measurement: 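Per-well intracellular GFP measured by laser scanning cytometry, plus viability from ATP luminescence, each relative to plate median of non-targeting control wells, in %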
Reading the numbers: GFP, % of control: higher = more GFP per well, higher productivity; viability (ATP), % of control: higher = more viable cells (more ATP)
Rule for the call: 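Called active when intracellular GFP, relative to negative control, is at or above 120%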
Shown is an unselected part of about 50,000 deposited reagents. Of all reagents, about 4,000 (8%) were called active. 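Mouse siRNA library applied to hamster cells; one well for each siRNA.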 Reagents against one gene are numbered here. No sequences are given here.

no.	Gene	siRNA no.	GFP, % of control	viability (ATP), % of control	Outcome
1	Gdf7 (growth differentiation factor 7)	1	63.5	64.8	inactive
2	Gdf7 (growth differentiation factor 7)	2	60.3	29.9	inactive
3	Gdf7 (growth differentiation factor 7)	3	72.6	82.5	inactive
4	Bckdha (branched chain ketoacid dehydrogenase E1, alpha polypeptide)	1	139	83.8	active
5	Bckdha (branched chain ketoacid dehydrogenase E1, alpha polypeptide)	2	107	73.6	inactive
6	Bckdha (branched chain ketoacid dehydrogenase E1, alpha polypeptide)	3	77	81.9	inactive
7	Dclre1a (DNA cross-link repair 1A)	1	65.2	68.7	inactive
8	Dclre1a (DNA cross-link repair 1A)	2	123	96.4	active
9	Dclre1a (DNA cross-link repair 1A)	3	58.1	44.9	inactive
10	Cd68 (CD68 antigen)	1	86.3	75.7	inactive
11	Cd68 (CD68 antigen)	2	53.2	55.7	inactive
12	Cd68 (CD68 antigen)	3	67.8	77.6	inactive
13	Cnih3 (cornichon family AMPA receptor auxiliary protein 3)	1	93.7	88.5	inactive
14	Cnih3 (cornichon family AMPA receptor auxiliary protein 3)	2	68.3	52.9	inactive
15	Cnih3 (cornichon family AMPA receptor auxiliary protein 3)	3	83.2	76	inactive
16	Gng3 (guanine nucleotide binding protein (G protein), gamma 3)	1	82.5	71	inactive
17	Gng3 (guanine nucleotide binding protein (G protein), gamma 3)	2	117	81.2	inactive
18	Gng3 (guanine nucleotide binding protein (G protein), gamma 3)	3	71.9	68.9	inactive
19	Tatdn1 (TatD DNase domain containing 1)	1	41.6	37.2	inactive
20	Tatdn1 (TatD DNase domain containing 1)	2	116	122	inactive
21	Tatdn1 (TatD DNase domain containing 1)	3	99.4	43.6	inactive
22	Bzw1 (basic leucine zipper and W2 domains 1)	1	93.7	86.7	inactive
23	Bzw1 (basic leucine zipper and W2 domains 1)	2	62	76.2	inactive
24	Bzw1 (basic leucine zipper and W2 domains 1)	3	64.9	61.4	inactive
25	Igfbp2 (insulin-like growth factor binding protein 2)	1	75	79.1	inactive
26	Igfbp2 (insulin-like growth factor binding protein 2)	2	66.7	37.1	inactive
27	Igfbp2 (insulin-like growth factor binding protein 2)	3	224	74.9	active
28	Phtf2 (putative homeodomain transcription factor 2)	1	84.6	113	inactive
29	Phtf2 (putative homeodomain transcription factor 2)	2	77.3	95.4	inactive
30	Phtf2 (putative homeodomain transcription factor 2)	3	64	78.6	inactive
31	Mrps21 (mitochondrial ribosomal protein S21)	1	77.1	62.9	inactive
32	Mrps21 (mitochondrial ribosomal protein S21)	2	82.6	95.1	inactive
33	Mrps21 (mitochondrial ribosomal protein S21)	3	81.5	68.4	inactive
34	Gcsh	1	62.6	56.1	inactive
35	Gcsh	2	90	95.7	inactive
36	Gcsh	3	101	76.7	inactive

Copied from the entries so far (5 entries):
no.	Gene	siRNA no.	GFP, % of control	viability (ATP), % of control	Outcome
6	Bckdha (branched chain ketoacid dehydrogenase E1, alpha polypeptide)	3	77	81.9	inactive
7	Dclre1a (DNA cross-link repair 1A)	1	65.2	68.7	inactive
8	Dclre1a (DNA cross-link repair 1A)	2	123	96.4	active
9	Dclre1a (DNA cross-link repair 1A)	3	58.1	44.9	inactive
10	Cd68 (CD68 antigen)	1	86.3	75.7	inactive
